Assay results as given in patent US20030100494A1, “Nerve protective drugs” (priority 1999, published 2003).
Non-standard residues stand in square brackets, D forms with d. Residues, ends and D or L forms follow the SMILES beside them. d2Nal = N[C@H](Cc1ccc2ccccc2c1)C(=O)O

Tested on: rat ischemia-reperfusion cerebral infarction models
Assay: rat ischemia-reperfusion cerebral infarction model after transient obstruction of middle cerebral artery
Assay type: in vivo
Settings: KP-102 total 0.16 mg/kg i.v.; means ± standard deviations, 14 rats/group

C[C@H](NC(=O)[C@@H](Cc1ccc2ccccc2c1)NC(=O)[C@@H](C)N)C(=O)N[C@@H](Cc1c[nH]c2ccccc12)C(=O)N[C@H](Cc1ccccc1)C(=O)N[C@@H](CCCCN)C(N)=O [KP-102, D-alanyl-3-(2-naphthalenyl)-D-alanyl-L-alanyl-L-tryptophyl-D-phenylalanyl-L-lysineamide] (H-[dA][d2Nal]AW[dF]K-NH2)
Body temperature (rectal temperature), 1 hour of reperfusion: 37.3 ± 0.4 °C
Body temperature (rectal temperature), 24 hours of reperfusion: 38.1 ± 0.4 °C
Body temperature (rectal temperature), 72 hours of reperfusion: 38.1 ± 0.5 °C
Body temperature (rectal temperature), immediately before reperfusion: 39.4 ± 0.3 °C
